The assay concerns the target SMAD2, endogenous (human (endogenous in MDA-MB-231)), Q15796. Put plainly: co-IP; anti-SMAD2/3 immunoprecipitants from MDA-MB-231 cells treated with TGF-β; control, FAF1-depleted (shFAF1#1, #2) or Myc-FAF1 fl/UBX-deleted expressing cells. As to conditions: remark: other sources report otherwise.

In article PMC5414047 one finds binding data, which are given here for one molecule.

No constants are given. Whether binding was seen depends on the method and setting. Binding seen in cells or lysates may run through a third protein. Some binding calls cover weakened binding; strength is not graded here.

B1: SMAD4, endogenous, Q13485 1-552 (protein)
chain: MDNMSITNTPTSNDACLSIVHSLMCHRQGGESETFAKRAIESLVKKLKEKKDELDSLITAITTNGAHPSKCVTIQRTLDGRLQVAGRKGFPHVIYARLWRWPDLHKNELKHVKYCQYAFDLKCDSVCVNPYHYERVVSPGIDLSGLTLQSNAPSSMMVKDEYVHDFEGQPSLSTEGHSIQTIQHPPSNRASTETYSTPALLAPSESNATSTANFPNIPVASTSQPASILGGSHSEGLLQIASGPQPGQQQNGFTGQPATYHHNSTTTWTGSRTAPYTPNLPHHQNGHLQHHPPMPPHPGHYWPVHNELAFQPPISNHPAPEYWCSIAYFEMDVQVGETFKVPSSCPIVTVDGYVDPSGGDRFCLGQLSNVHRTEAIERARLHIGKGVQLECKGEGDVWVRCLSDHAVFVQSYYLDREAGRAPGDAVHKIYPSAYIKVFDLRQCHRQMQQQAATAQAAAAAQAAAVAGNIPGPGSVGGIAPAISLSAAAGIGVDDLRRLCILRMSFVKGWGPDYPRQSIKETPCWIEIHLHRALQLLDEVLHTMPIADPQPLD
As for B1, the binding entry was “binds”.
